Test results reported in the supplement of paper PMC6411743.
± gives the standard deviation of the averaged measurements. Some of the results follow.

Sequences of proteins named here, by UniProt entry; tags and fusion partners are left off. A change or cut given only in a name is not applied to a line headed by its entry.
UniProt Q96D05: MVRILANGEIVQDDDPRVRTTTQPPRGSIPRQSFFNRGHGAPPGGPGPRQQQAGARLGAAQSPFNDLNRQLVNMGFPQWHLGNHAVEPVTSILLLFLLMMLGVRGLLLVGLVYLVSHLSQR
UniProt Q96A49: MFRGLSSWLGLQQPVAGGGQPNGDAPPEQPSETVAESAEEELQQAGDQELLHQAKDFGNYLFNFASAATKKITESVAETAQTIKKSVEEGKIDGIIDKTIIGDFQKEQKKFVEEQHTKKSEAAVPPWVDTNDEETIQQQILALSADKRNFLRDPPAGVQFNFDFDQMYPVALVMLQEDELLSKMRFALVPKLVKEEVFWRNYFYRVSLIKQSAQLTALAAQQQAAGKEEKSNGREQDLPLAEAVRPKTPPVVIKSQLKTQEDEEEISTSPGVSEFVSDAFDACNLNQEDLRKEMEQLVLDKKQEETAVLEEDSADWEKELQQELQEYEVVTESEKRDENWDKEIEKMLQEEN
UniProt Q92625: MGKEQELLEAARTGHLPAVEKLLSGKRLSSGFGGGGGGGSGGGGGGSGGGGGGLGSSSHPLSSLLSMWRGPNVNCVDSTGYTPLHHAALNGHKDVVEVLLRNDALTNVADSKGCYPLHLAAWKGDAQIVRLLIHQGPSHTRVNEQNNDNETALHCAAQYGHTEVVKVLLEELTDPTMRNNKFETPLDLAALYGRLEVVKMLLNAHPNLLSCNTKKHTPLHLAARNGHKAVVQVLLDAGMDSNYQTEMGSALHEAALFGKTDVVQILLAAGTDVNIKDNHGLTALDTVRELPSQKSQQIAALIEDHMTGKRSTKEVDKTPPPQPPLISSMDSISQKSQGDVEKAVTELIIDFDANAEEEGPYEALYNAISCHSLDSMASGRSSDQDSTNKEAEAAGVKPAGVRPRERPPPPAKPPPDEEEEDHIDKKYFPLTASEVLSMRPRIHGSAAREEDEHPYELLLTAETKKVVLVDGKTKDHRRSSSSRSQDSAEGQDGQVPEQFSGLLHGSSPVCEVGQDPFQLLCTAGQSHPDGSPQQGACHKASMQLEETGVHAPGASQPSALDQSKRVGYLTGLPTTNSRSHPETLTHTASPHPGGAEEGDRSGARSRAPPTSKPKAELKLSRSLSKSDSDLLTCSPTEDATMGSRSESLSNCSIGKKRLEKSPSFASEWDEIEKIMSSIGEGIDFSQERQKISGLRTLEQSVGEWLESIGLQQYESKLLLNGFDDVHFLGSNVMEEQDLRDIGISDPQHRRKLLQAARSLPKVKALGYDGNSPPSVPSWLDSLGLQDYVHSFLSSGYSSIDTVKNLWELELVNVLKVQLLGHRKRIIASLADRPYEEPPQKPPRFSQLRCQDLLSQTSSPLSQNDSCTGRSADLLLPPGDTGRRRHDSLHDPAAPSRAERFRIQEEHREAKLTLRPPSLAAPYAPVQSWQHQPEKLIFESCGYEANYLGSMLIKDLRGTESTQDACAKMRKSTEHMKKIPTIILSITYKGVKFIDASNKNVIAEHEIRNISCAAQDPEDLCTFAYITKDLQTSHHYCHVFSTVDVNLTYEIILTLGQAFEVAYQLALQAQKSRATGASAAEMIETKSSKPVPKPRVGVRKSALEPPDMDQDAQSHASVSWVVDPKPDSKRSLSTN
UniProt Q96IU4: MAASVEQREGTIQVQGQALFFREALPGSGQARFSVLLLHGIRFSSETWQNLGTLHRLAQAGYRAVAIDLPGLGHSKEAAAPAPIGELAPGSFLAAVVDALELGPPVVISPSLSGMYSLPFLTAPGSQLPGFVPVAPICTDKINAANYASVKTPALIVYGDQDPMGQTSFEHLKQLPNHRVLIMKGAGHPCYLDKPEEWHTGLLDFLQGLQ

Compound: Nc1nc2c(ncn2[C@@H]2O[C@H](COP(=O)(O)OP(=O)(O)OP(=O)(O)O)[C@@H](O)[C@H]2O)c(=O)[nH]1 [guanosine triphosphate]
Experiment: NP40-soluble protein abundance relative to vehicle (solubility fold change) (ratio); higher = more soluble protein in presence of GTP
Experimental: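 Solubility proteome profiling in Jurkat crude lysate. Lysate was treated with Mg-GTP (0.1-10 mM) for 10 min at room temperature and 3 min at 37 °C, then solubilised with 0.8% NP40 and benzonase, followed by ultracentrifugation. Proteins were quantified by TMT10 LC-MS/MS; the value is the NP40-soluble abundance relative to the NP40-processed vehicle, from 3 independent experiments.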

| Target | NP40-soluble protein abundance (concentration: 0.1mM) | NP40-soluble protein abundance (concentration: 0.5mM) | NP40-soluble protein abundance (concentration: 1mM) | NP40-soluble protein abundance (concentration: 2mM) | NP40-soluble protein abundance (concentration: 4mM) | NP40-soluble protein abundance (concentration: 6mM) | NP40-soluble protein abundance (concentration: 8mM) | NP40-soluble protein abundance (concentration: 10mM) |
| --- | --- | --- | --- | --- | --- | --- | --- | --- |
| UniProt Q96D05 and related entries | 1.15 ± 0.085 | 1.07 ± 0.27 | 1.29 ± 0.32 | 1.19 ± 0.21 | 1.16 ± 0.19 | 1.16 ± 0.049 | 1.09 ± 0.45 | 1.23 ± 0.34 |
| SYAP1 (UniProt Q96A49) | 0.9486 ± 0.0035 | 0.92 ± 0.042 | 1.02 ± 0.035 | 0.977 ± 0.015 | 0.938 ± 0.077 | 0.968 ± 0.055 | 1.02 ± 0.059 | 1.01 ± 0.04 |
| ANKS1A (UniProt Q92625) | 0.981 ± 0.045 | 0.985 ± 0.065 | 0.999 ± 0.025 | 0.974 ± 0.046 | 0.968 ± 0.03 | 1 ± 0.062 | 0.967 ± 0.029 | 0.971 ± 0.046 |
| UniProt Q8WXH0 and related entries | 0.9889 ± 0.0062 | 1.03 ± 0.022 | 1.025 ± 0.0021 | 1.007 ± 0.0037 | 0.9917 ± 0.0062 | 1.01 ± 0.015 | 1.03 ± 0.023 | 1.03 ± 0.031 |
| ABHD14B (UniProt Q96IU4) | 0.881 ± 0.17 | 0.853 ± 0.16 | 0.822 ± 0.13 | 0.791 ± 0.096 | 0.741 ± 0.096 | 0.743 ± 0.096 | 0.746 ± 0.13 | 0.75 ± 0.12 |
